Measurements reported in patent publication US20050148838A1, “Pharmaceutical discovery and development” (priority 2002, published 2005).
For at least one compound, name, drawing or mass did not settle the structure.

What was measured:
[1] = EC-MS oxidation with co-injected glutathione (Phase II type conjugation of EC-generated electrophiles); settings: m/z +594 and −592, FIG. 6
[2] = Coulometric EC-MS (voltammetric mass spectrometry), Phase I type EC oxidation; format: physicochemical; settings: per product ion
Description: Referring to FIG. 1A, a Model 1100 LC/MSD single quadrupole mass spectrometer 10 (Agilent Technologies, Palo Alto, Calif., USA) was used in combination with a Coulochem® III ECD 12 and Model 5021 coulometric cell 14 (ESA Inc., Chelmsford, Mass., USA).
Compounds are characterized via automated sequences, in which EC potential is changed from, e.g., 0-1200 mV(vs. Pd) in increments of, e.g., 200 mV. EC current and MS ion abundance at specific mass-to-charge ratios (m/z) is monitored. In accordance with the present invention, EC (e.g., coulometric, or amperometric) and reaction product profiles for various drug candidates can be obtained reproducibly. Peak area for parent compounds is inversely proportional to EC response with concomitant formation of reaction products.

C[C@]12CC[C@@H]3c4ccc(O)cc4CC[C@H]3[C@@H]1CC[C@@H]2O [Estradiol]
EC potential at which catecholestrogen-glutathione (CE-SG) conjugate ions reached maximal abundance [1]: 900 mV | E½ (½ wave potential for product formation) [2]: 800 mV vs. Pd
